# PubChem BioAssay AID1159578 – Peter MacCallum Cancer Centre, 2015
# Test: 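Knock-downs that alter how fast lymphatic endothelial cells migrate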 (primary screen)
# Cell system: human lymphatic endothelial cells
# Reagents: siRNA pool against human genes, 40 nM
# Timing: 48 h after transfection
# Read-out: 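High-content imaging of dye-stained cells in a scratch assay measures filled wound area and nuclei per well; duplicate means given as ratio to mock and robust z-score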
# Reading the numbers: migration robust z-score: higher = faster migration into the scratch; migration relative to mock: higher = more scratch area covered than mock; nuclei per well: higher = more cells in the well
# Active means: 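Pools averaging fewer than 3300 nuclei are never called; remaining pools count as changed when migration robust z lies outside -2 to 2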
# Calls: active = migration changed; inactive = no migration change, or too few cells
# In all, the deposit lists about 18,000 reagents; shown is a part drawn at random. Over the whole deposit, about 1,030 (5.7%) were called active. 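Inactive calls also include pools with fewer than 3300 nuclei, whose migration was not assessed.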 Raw values vary from plate to plate and are shown uncorrected. Unmarked entries are inactive.
gene,PubChem SID,migration robust z-score,migration class with cell-count check,migration relative to mock,"nuclei per well, duplicate mean"
PSMG1,SID255353687,0.14,migration z between -2 and 2; enough cells,0.92,5898
ABCA5,SID255356255,0.4,migration z between -2 and 2; enough cells,0.99,7032
NRXN3,SID255354225,1.2,migration z between -2 and 2; enough cells,1.19,7156
CDC25B,SID255348816,-0.8,migration z between -2 and 2; enough cells,0.65,4456
MALL,SID255353318,1.07,migration z between -2 and 2; enough cells,1.17,6616
SNX24,SID255357082,1.56,migration z between -2 and 2; enough cells,1.28,6656
PLA2G3,SID255357326,-1.42,migration z between -2 and 2; enough cells,0.53,4556
LRRC4B,SID255362106,0.85,migration z between -2 and 2; enough cells,1.1,7176
UBE2U,SID255363388,-0.73,migration z between -2 and 2; enough cells,0.66,5614
ADGRA3,SID255363842,0.6,migration z between -2 and 2; enough cells,0.92,6574
ASIC2,SID255348140,0.16,migration z between -2 and 2; enough cells,0.84,4703
RPP40,SID255355360,-1.53,migration z between -2 and 2; enough cells,0.48,5746
ADCY4,SID255363981,0.13,migration z between -2 and 2; enough cells,0.83,5647
TMCO4,SID255364483,0,migration z between -2 and 2; enough cells,0.88,4774
MKS1,SID255358258,-1.03,migration z between -2 and 2; enough cells,0.62,6320
SOX3,SID255352573,-0.13,migration z between -2 and 2; enough cells,0.78,5996
NPIPA1,SID255354168,0.98,migration z between -2 and 2; enough cells,1.14,6216
SV2C,SID255355912,-0.55,migration z between -2 and 2; enough cells,0.74,4570
DGAT1,SID255353744,0.86,migration z between -2 and 2; enough cells,0.97,5895
CDK9,SID255348844,0.05,migration z between -2 and 2; enough cells,0.82,4203
CT47A7,SID255366138,-1.55,migration z between -2 and 2; enough cells,0.48,5099
CDK12,SID255357888,0.7,migration z between -2 and 2; enough cells,0.94,5426
H2AC15,SID255353475,0.98,migration z between -2 and 2; enough cells,1.14,5706
B3GAT2,SID255362988,0.16,migration z between -2 and 2; enough cells,0.84,7021
RPE65,SID255352160,-1.25,migration z between -2 and 2; enough cells,0.56,5069
ENTPD8,SID255365397,-0.02,migration z between -2 and 2; enough cells,0.8,4701
INKA2,SID255358959,-3.38,under 3300 nuclei; migration not judged,0.02,2696
CHEK2,SID255355678,0.34,migration z between -2 and 2; enough cells,0.87,6341
FNDC3B,SID255359993,-1.67,migration z between -2 and 2; enough cells,0.45,3512
PODNL1,SID255360540,0.95,migration z between -2 and 2; enough cells,1.13,5246
SLCO1C1,SID255357952,-0.39,migration z between -2 and 2; enough cells,0.73,6568
ANKMY1,SID255357613,0.56,migration z between -2 and 2; enough cells,1.03,5639
MPP3,SID255351023,-2.41 (active),migration z below -2; enough cells,0.34,3472
CRHBP,SID255349082,0.62,migration z between -2 and 2; enough cells,1.04,5928
KLHL10,SID255364938,-0.44,migration z between -2 and 2; enough cells,0.77,6845

Continued; the last 7 above are carried over.
gene,PubChem SID,migration robust z-score,migration class with cell-count check,migration relative to mock,"nuclei per well, duplicate mean"
FNDC3B,SID255359993,-1.67,migration z between -2 and 2; enough cells,0.45,3512
PODNL1,SID255360540,0.95,migration z between -2 and 2; enough cells,1.13,5246
SLCO1C1,SID255357952,-0.39,migration z between -2 and 2; enough cells,0.73,6568
ANKMY1,SID255357613,0.56,migration z between -2 and 2; enough cells,1.03,5639
MPP3,SID255351023,-2.41 (active),migration z below -2; enough cells,0.34,3472
CRHBP,SID255349082,0.62,migration z between -2 and 2; enough cells,1.04,5928
KLHL10,SID255364938,-0.44,migration z between -2 and 2; enough cells,0.77,6845
SCYL1,SID255359379,-0.13,migration z between -2 and 2; enough cells,0.78,5226
RIDA,SID255354933,0.04,migration z between -2 and 2; enough cells,0.89,5902
UMPS,SID255353066,1.35,migration z between -2 and 2; enough cells,1.06,5162
FAM178B,SID255357590,-0.17,migration z between -2 and 2; enough cells,0.84,5388
TMEM40,SID255358570,0.8,migration z between -2 and 2; enough cells,1.1,6232
ZBTB7A,SID255357666,1.09,migration z between -2 and 2; enough cells,1.02,6562
ATP1B3,SID255348448,-4.46,under 3300 nuclei; migration not judged,-0.06,1896
SMC2,SID255355209,-0.1,migration z between -2 and 2; enough cells,0.78,4724
NKX3-2,SID255348506,0.88,migration z between -2 and 2; enough cells,0.98,5772
GPC2,SID255364323,-0.41,migration z between -2 and 2; enough cells,0.78,6818
MARCKS,SID255350831,0.39,migration z between -2 and 2; enough cells,0.88,6392
NAA25,SID255360628,-1.27,migration z between -2 and 2; enough cells,0.56,5555
RNASE9,SID255365652,-0.45,migration z between -2 and 2; enough cells,0.76,5012
HBB,SID255350149,0.16,migration z between -2 and 2; enough cells,0.84,6336
EXOC8,SID255363412,0.1,migration z between -2 and 2; enough cells,0.91,5634
CLIP1,SID255352248,-2.2 (active),migration z below -2; enough cells,0.32,5980
TMOD4,SID255357166,0.94,migration z between -2 and 2; enough cells,1.13,6030
ASCC2,SID255361221,-0.26,migration z between -2 and 2; enough cells,0.82,5814
EDEM3,SID255360732,0.05,migration z between -2 and 2; enough cells,0.82,5978
PNMA8A,SID255358520,-0.86,migration z between -2 and 2; enough cells,0.66,5768
BEND3,SID255359541,0.53,migration z between -2 and 2; enough cells,1.02,4674
PMFBP1,SID255360999,0.53,migration z between -2 and 2; enough cells,1.02,5986
OR6Q1,SID255364216,-2.08 (active),migration z below -2; enough cells,0.34,5302
SIX2,SID255355314,-0.83,migration z between -2 and 2; enough cells,0.64,4608
PRDM13,SID255359683,-2.5,under 3300 nuclei; migration not judged,0.24,2627
CBLL1,SID255360532,1.42,migration z between -2 and 2; enough cells,1.08,6558
SPNS3,SID255364078,-1.23,migration z between -2 and 2; enough cells,0.57,5708
EEFSEC,SID255359740,2.21 (active),migration z above 2; enough cells,1.23,3906
NOTCH3,SID255351274,-0.16,migration z between -2 and 2; enough cells,0.78,5322
PRDM8,SID255359207,-1.96,migration z between -2 and 2; enough cells,0.38,4682
GLCE,SID255356628,2.16 (active),migration z above 2; enough cells,1.22,5648
RHOF,SID255358052,0.8,migration z between -2 and 2; enough cells,0.96,6245
TRAPPC11,SID255359744,0.53,migration z between -2 and 2; enough cells,1.02,7200
TMEM183A,SID255362027,-1.32,migration z between -2 and 2; enough cells,0.54,5674
CHSY3,SID255364955,-2.88 (active),migration z below -2; enough cells,0.25,5814
RAPGEF1,SID255350028,1.45,migration z between -2 and 2; enough cells,1.26,6500
DRC7,SID255361254,-1.4,migration z between -2 and 2; enough cells,0.52,6460
PHPT1,SID255357126,-1.19,migration z between -2 and 2; enough cells,0.57,4692
